{"source": "patent US11819485B2", "about": "“Levodopa fractionated dose composition and use” (AVION PHARMACEUTICALS, LLC, priority 2018, dated 2023)", "origin": "cited, not measured here"}
{"compound": "N[C@@H](Cc1ccc(O)c(O)c1)C(=O)O", "note": "[LD, Levodopa]", "values": [{"measurement": "half-life of LD in the blood stream", "setting": "blood stream", "value": "about 1.5 hours"}, {"measurement": "plasma half-life of LD", "setting": "plasma", "value": "approximately 90 min"}]}
